From PMC3102665, “A Sir2-Like Protein Participates in Mycobacterial NHEJ” (PLoS ONE, 2011)

Target: T1, TAP-tagged Ku protein of M. smegmatis (knock-in strain) (M. smegmatis) (UniProt A0R3S7)
T1 sequence: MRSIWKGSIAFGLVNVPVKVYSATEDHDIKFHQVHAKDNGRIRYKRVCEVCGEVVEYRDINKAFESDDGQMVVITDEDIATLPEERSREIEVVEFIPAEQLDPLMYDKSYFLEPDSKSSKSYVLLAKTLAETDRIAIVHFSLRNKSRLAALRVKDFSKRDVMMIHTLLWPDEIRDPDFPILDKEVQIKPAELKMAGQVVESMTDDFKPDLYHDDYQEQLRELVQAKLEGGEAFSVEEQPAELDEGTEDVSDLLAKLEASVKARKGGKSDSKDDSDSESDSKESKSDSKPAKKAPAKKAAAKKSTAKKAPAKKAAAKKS
Assay: affinity purification with mass spectrometry; tandem affinity purification (IgG-Sepharose, TEV cleavage, calmodulin resin) of C-terminally TAP-tagged Ku from M. smegmatis crude cytoplasmic extract, 4°C, 10 mM Tris-HCl pH 7.9, 0.15 M NaCl; SDS-PAGE, silver staining, bands identified by LC-MS/MS; repeated independently

binding: binds
B1: NAD-dependent deacetylase (MSMEG_5175), MsmSir2, endogenous in M. smegmatis (enzyme, UniProt A0R2N3 1-240)
chain: MQVTVLSGAGISAESGVPTFRDAETGLWAQVDPYEISSTDGWQRNPEKVWAWYLWRHYMMARVAPNEAHRTVAAWEDHLDVRVVTQNIDDLHERAGSTNVYHLHGSLFEFRCDACGSAFEGNLPEMPEPVETIDPPVCPCSGLIRPSVVWFGEPLPDAAWNRSVLAVSSADVVIVVGTSSIVYPAAGLPEAALAAGKPVIEVNPERTPLSDSATVSLRETASEALPTLLQRLPELLNRSA

No constants are given. Whether binding was seen depends on the method and setting. Binding seen in cells or lysates may run through a third protein. Here binding means that the protein was enriched with, or labelled near, the bait; the list need not be complete. Where a sequence is shown, tags or fusion partners need not be part of it.
